# Data: patent US20140235698A1, “RNA Aptamer Specifically Binding to Carcinoembryonic Antigen and Use thereof” (POSCO, published 2014)
# Experiments:
# [1] = target: T1, CEA (CEACAM5) on CEA-positive colon cancer cells (Homo sapiens) (UniProt P06731); assay: binding assay; conditions: 2'-F pyrimidines (C and U), fluorescence staining of fixed LS174T and LoVo cells, 500 nM, protein details: endogenous, label: biotin
# T1 sequence (looked up, limits assumed): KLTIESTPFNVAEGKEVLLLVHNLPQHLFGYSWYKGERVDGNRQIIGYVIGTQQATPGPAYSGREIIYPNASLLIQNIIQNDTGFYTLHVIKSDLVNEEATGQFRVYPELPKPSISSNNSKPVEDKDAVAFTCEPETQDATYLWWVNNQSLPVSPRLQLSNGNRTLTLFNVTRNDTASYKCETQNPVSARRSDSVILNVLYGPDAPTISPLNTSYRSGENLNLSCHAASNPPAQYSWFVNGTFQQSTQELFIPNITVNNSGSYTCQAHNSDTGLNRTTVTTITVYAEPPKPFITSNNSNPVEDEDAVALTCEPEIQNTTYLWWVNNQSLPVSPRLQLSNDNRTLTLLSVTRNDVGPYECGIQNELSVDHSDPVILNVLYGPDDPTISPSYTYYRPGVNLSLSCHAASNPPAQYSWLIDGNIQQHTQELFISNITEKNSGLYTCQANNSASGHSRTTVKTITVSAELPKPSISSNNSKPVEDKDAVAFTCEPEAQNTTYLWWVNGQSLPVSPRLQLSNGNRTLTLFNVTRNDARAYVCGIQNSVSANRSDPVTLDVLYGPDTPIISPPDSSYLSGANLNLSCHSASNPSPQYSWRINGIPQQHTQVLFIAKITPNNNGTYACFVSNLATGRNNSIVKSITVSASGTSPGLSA
# [2] = target: T2, NCEA in mammalian two-hybrid with DR5 (Homo sapiens) (UniProt P06731); assay: activity in cells; conditions: protein details: GAL4 DNA-BD fusion (pM vector), 293T cells
# T2 sequence (looked up, limits assumed): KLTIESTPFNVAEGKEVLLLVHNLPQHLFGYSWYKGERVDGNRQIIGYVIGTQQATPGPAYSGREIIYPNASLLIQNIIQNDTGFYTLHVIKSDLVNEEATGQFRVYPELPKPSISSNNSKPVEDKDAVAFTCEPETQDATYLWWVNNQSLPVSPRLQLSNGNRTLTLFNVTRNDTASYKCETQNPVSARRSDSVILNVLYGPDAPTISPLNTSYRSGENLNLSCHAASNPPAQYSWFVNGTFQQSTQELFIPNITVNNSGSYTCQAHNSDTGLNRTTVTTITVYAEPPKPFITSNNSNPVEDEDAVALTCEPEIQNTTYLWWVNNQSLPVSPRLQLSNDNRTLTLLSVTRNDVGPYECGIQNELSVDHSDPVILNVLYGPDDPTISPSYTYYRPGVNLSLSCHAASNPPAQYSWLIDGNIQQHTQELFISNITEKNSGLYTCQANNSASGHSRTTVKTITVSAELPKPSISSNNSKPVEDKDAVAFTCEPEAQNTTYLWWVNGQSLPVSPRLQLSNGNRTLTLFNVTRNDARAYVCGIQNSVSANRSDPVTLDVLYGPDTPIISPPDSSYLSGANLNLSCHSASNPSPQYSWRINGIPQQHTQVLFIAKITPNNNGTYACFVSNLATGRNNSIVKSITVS
sequence,measurement,setting,value
GCGGAAGCGUGCUGGGCUAGAAUAAUAAUAAGAAAACCAGUACUUUCGU [Biotin-tagged YJ-1],binding result,"[1]; PBS + 1.5 mM MgCl2, no staining of CEA-negative HT29, protein on the cell surface, variant of Truncated GROUP 1-1 (19-1, YJ-1)",binds
GCGGAAGCGUGCUGGGCUAGAAUAAUAAUAAGAAAACCAGUACUUUCGU [YJ-1 expressed in cells (7SL promoter vector)],functional effect of the aptamer,"[2]; blocks NCEA-DR5 interaction (SEAP not increased), protein in cells, variant of Truncated GROUP 1-1 (19-1, YJ-1)",active
GCGGAAGCGUGCUGGGCUAGGGCGGCGGCGGGAAAACCAGUACUUUCGU [Biotin-tagged mutant YJ-1],binding result,"[1]; PBS + 1.5 mM MgCl2, protein on the cell surface, variant of Mutant GROUP 1-1 (m19-1, mutant YJ-1)",no binding
GCGGAAGCGUGCUGGGCUAGGGCGGCGGCGGGAAAACCAGUACUUUCGU [Mutant YJ-1 expressed in cells (7SL promoter vector)],functional effect of the aptamer,"[2]; SEAP still increased 2.5-fold, no inhibition of NCEA-DR5, protein in cells, variant of Mutant GROUP 1-1 (m19-1, mutant YJ-1)",not active

# No signal at the amounts used counts as a negative. Tags and fusion partners may be left off the protein sequences shown. For some of these results: At least one result comes from cells or an extract, where the contact may be indirect.
